According to PubChem BioAssay AID493014 (National Center for Advancing Translational Sciences (NCATS), 2011):
Among all 340,000 compounds or so, about 170 (0.05%) were called active. This list was built around the results that the source calls inconclusive (neither active nor inactive); the mix of calls is not that of the screen. Calls follow the shape of the dose curve; as a rule, active = well fitted inhibition curve with a large enough effect in the signal ratio, with a control signal flat (not every such curve was filed as active); inconclusive = small, poorly fitted or top-dose-only effect, or effect the other way, or a change in a side signal; inactive = flat fitted curve, though single readings scatter; the % refers to the signal ratio. A potency beside an inconclusive call is a rough fit, not a confirmed value.
Potency is read from the fitted curve at half-maximal effect.

Experiment: qHTS Assay to Find Inhibitors of Chronic Active B-Cell Receptor Signaling;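 as to activity change, negative = inhibition: plate controls were basal doxycycline-induced cells for no effect and cells given 10 µM MG132 for full effect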
Details: ABC-DLBCL IkBa-CBG/CBR reporter, luminescence ratio (green luciferase fused to IkBa over red control in TMD8 lymphoma cells), 4 h; activity change, negative = inhibition: at 46.1 µM (top of the series)
How it was run: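 Compounds up to 46 uM were incubated four hours with TMD8 cells whose green CBG68 luciferase is fused to IkappaBalpha; red CBR luminescence normalised the signal, and concentration-effect curves were fitted to fusion, red and ratio data.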
In the case of COc1ccc(C)cc1NC(=O)Nc1ccc(Br)cn1, the activity change, negative = inhibition is reported as inconclusive: 14.9%.
For Cn1nc(-c2ccccc2)c(-c2nc(-c3ccccc3Cl)no2)c1Cl, the activity change, negative = inhibition was inconclusive: 0.488%.
With CCCNS(=O)(=O)c1cc2c3c(c1)CCN3C(=O)CC2 the “activity change, negative = inhibition” value was inactive: 0.911%.
In the case of Cc1ccc(NC(=O)NNC(=O)COc2ccc3ccccc3c2)cc1, the “activity change, negative = inhibition” value is reported as inactive: 5.55%.
With Cc1nc2nc(SCC(=O)Nc3cccc(F)c3)[nH]c2cc1Br the activity change, negative = inhibition was inconclusive: 0.67%.
With c1ccc2sc(-c3ccncc3)nc2c1 the activity change, negative = inhibition was inconclusive: 8.9%.
With CCCCc1ccc(NS(=O)(=O)c2cccs2)cc1 the activity change, negative = inhibition was inconclusive: 17.2%.
For CC(=O)c1cc(F)c(N2CCN(C(=O)COc3ccccc3F)CC2)cc1C, the activity change, negative = inhibition was inconclusive: 12.8%.
With COc1cccc(OCc2nc(-c3ccc(Br)o3)no2)c1 the activity change, negative = inhibition was inconclusive: 5.69%.
With CCc1ccc(-c2nc(CSCC(=O)NCc3ccco3)c(C)o2)cc1 the activity change, negative = inhibition was inconclusive: 4.82%.
For Cn1cc(CCC(=O)NCc2ccc3c(c2)OCO3)c2ccccc21, the Potency was inconclusive: 23.1 µM [falling, partial curve, poor fit].
In the case of Cc1ccc(NC(=O)CN2C(=O)N/C(=C/c3ccccc3OCc3cccc(C(=O)O)c3)C2=O)cc1, the activity change, negative = inhibition is reported as inconclusive: 18.9%.
For COc1ccc(NC(=O)N(C)C[C@H]2Oc3ccc(NC(=O)Nc4ccc(C(F)(F)F)cc4)cc3C(=O)N([C@H](C)CO)C[C@@H]2C)cc1, the “activity change, negative = inhibition” value was inactive: -3.26%.
With CC(C)Cc1cc(C(=O)NCc2cccs2)no1 the Potency was inconclusive: 18.4 µM [falling, partial curve].
In the case of Cc1ccccc1NC(=O)Cc1c(O)c2ccccc2[nH]c1=O, the “activity change, negative = inhibition” value is reported as inactive: 6.19%.
With CN(Cc1ccco1)c1ncnc2ccc(-c3cccc(Cl)c3)cc12 the “activity change, negative = inhibition” value was inactive: -3.73%.
With COc1ccc(COc2cc(-c3cccc(OC)c3)nc3ccc(NC(=O)c4ccc(N(C)C)cc4)cc23)cc1 the Potency was inconclusive: 18.4 µM [falling, single point].
In the case of COc1ccc(NC(C)=O)cc1CP(=O)(c1ccccc1)c1ccccc1, the “activity change, negative = inhibition” value is reported as inactive: 0.515%.
With COc1cc(/C=N/NC(=O)c2ccccc2Cl)ccc1Oc1ccc([N+](=O)[O-])cn1 the Potency was inconclusive: 28.2 µM [falling, single point].
For Cc1ccc2nsnc2c1S(=O)(=O)N1CCN(C(=O)C2CCCO2)CC1 (stereo unspecified), the activity change, negative = inhibition was inconclusive: 3.21%.
For O=C(O)CNS(=O)(=O)c1cccc2nsnc12, the activity change, negative = inhibition was inconclusive: -1.64%.
In the case of Brc1ccc2c(c1)OCCOCCOCCOCCOCCO2, the “activity change, negative = inhibition” value is reported as inactive: 1.76%.
With Cc1nn(C)cc1CN1CCC(n2nccc2NC(=O)CCCc2ccccc2)CC1 the activity change, negative = inhibition was inconclusive: -2.27%.
With NC(=O)C1CC12c1ccccc1-c1ccccc12 (stereo unspecified) the activity change, negative = inhibition was inconclusive: 6.02%.
With COc1ccc(Cc2n[nH]c(=S)n2-c2ccc3c(c2)OCCO3)cc1 the “activity change, negative = inhibition” value was inactive: -11.5%.
With Cc1ccc(C(=O)OCc2cc(=O)n3c(C)csc3n2)s1 the activity change, negative = inhibition was inconclusive: -0.867%.
For COc1ccc(-c2cc(C(=O)N3CCOCC3)c3cc(C)ccc3n2)cc1, the activity change, negative = inhibition was inconclusive: -0.179%.
With CNC(=O)c1ccc(NC(=O)CN2c3cccc4cccc(c34)S2(=O)=O)cc1 the activity change, negative = inhibition was inconclusive: -7.21%.
With O=C(N1CCOCC1)N1c2ccccc2Sc2ccccc21 the “activity change, negative = inhibition” value was inactive: -7.01%.
For Cc1ccc(CN2CCC(N3CCC(C(=O)NCC4CCCO4)CC3)CC2)o1 (stereo unspecified), the activity change, negative = inhibition was inconclusive: 3.51%.
With O=S(=O)(Nc1ccc(O)cc1)c1cccc2cccnc12 the Potency was inconclusive: 20 µM [falling, single point].
With O=C(N[C@H]1C/C=C\C[C@H](CC(=O)N(CCO)Cc2ccccc2)C(=O)NC[C@H](c2ccccc2)OC1=O)OCC1c2ccccc2-c2ccccc21 the activity change, negative = inhibition was inconclusive: -2.7%.
In the case of O=C(CSc1n[nH]c(-c2ccc(S(=O)(=O)NC3CCCCC3)cc2)n1)N1CCCC1, the activity change, negative = inhibition is reported as inconclusive: -7.17%.
In the case of CCOC(=O)CNC(=O)c1nn(-c2cccc(OC)c2)c(=O)c2ccccc12, the activity change, negative = inhibition is reported as inconclusive: 2.72%.
For Cc1ccccc1Cn1ccc(NC(=O)c2cc3nc(-c4ccco4)cc(C(F)(F)F)n3n2)n1, the “activity change, negative = inhibition” value was inactive: 1.48%.
For C/C(=N\NC(=O)c1cc(C)nc2ccccc12)c1ccco1, the activity change, negative = inhibition was inconclusive: -16.6%.
With O=C(CCNC(=O)c1ccc([N+](=O)[O-])cc1)Nc1ccccc1N1CCCC1 the “activity change, negative = inhibition” value was inactive: 0.391%.
For COCCNC(=O)c1onc(CCl)c1C(=O)OC, the Potency was inconclusive: 15.8 µM [falling, single point].
With Cc1nnc(SCC(=O)NCc2ccc(F)cc2)[nH]c1=O the “activity change, negative = inhibition” value was inactive: 6.35%.
With Cc1ccccc1C(=O)NCC(=O)OC(C)C(=O)NC(C)CCc1ccccc1 (stereo unspecified) the activity change, negative = inhibition was inconclusive: 3.42%.
In the case of CCOc1ccccc1NC(=O)C1Cc2ccccc2CN1S(C)(=O)=O (stereo unspecified), the activity change, negative = inhibition is reported as inconclusive: -7.46%.
With COC(=O)C1CCN(C(=O)C23CCC(C)(C(=O)O2)C3(C)C)CC1 (stereo unspecified) the activity change, negative = inhibition was inconclusive: -0.568%.
With COc1cc(CC(=O)OCC(=O)Nc2ccc(N(C)C)cc2)cc(OC)c1OC the activity change, negative = inhibition was inconclusive: -1.7%.
With COc1ccc(-c2c(C)nc3c(-c4ccccn4)cnn3c2N)cc1 the activity change, negative = inhibition was inconclusive: -2.15%.
With CCOc1cc(CNc2ccc3c(c2)CCC3)ccc1O the activity change, negative = inhibition was inconclusive: 29.7%.
For COCc1c(C(=O)OCc2nc3ccsc3c(=O)[nH]2)oc2ccccc12, the “activity change, negative = inhibition” value was inactive: 0.456%.
For CN(C)N1C(N)=C(C#N)C(c2ccc(F)cc2)C2=C1CCCC2=O (stereo unspecified), the activity change, negative = inhibition was inconclusive: 8.93%.
In the case of CC1=Nc2ccccc2N=C(NC(=O)CSC(=S)N2CCCCC2)C1c1ccccc1 (stereo unspecified), the activity change, negative = inhibition is reported as inconclusive: -18.2%.
For CC(C)c1nc(CNC(=O)C2CCC(=O)N(CCc3ccc(Cl)cc3)C2)no1 (stereo unspecified), the “activity change, negative = inhibition” value was inactive: 0.574%.
With Cc1ccc(C(=O)Nc2sc(C)c(-c3ccccc3)c2C(N)=O)cc1[N+](=O)[O-] the activity change, negative = inhibition was inconclusive: 4.38%.
With COc1ccc2c(Cl)c(C(=O)N/N=C/c3c(C)[nH]c4ccccc34)sc2c1 the Potency was inconclusive: 13 µM [falling, partial curve, poor fit].
With Cc1ccc(-n2ncc3c(NCc4ccccc4)ncnc32)cc1Cl the “activity change, negative = inhibition” value was inactive: 0.819%.
In the case of O=C(Cc1ccc(F)cc1)Nc1nc(-c2ccc(F)c(F)c2)cs1, the activity change, negative = inhibition is reported as inconclusive: -8.04%.
With CC[C@]12c3[nH]c4cc(CCC(=O)N(C)C)ccc4c3CCN1C(=O)[C@@H](CC(=O)NCc1cccc(C(F)(F)F)c1)C[C@@H]2C(=O)N1CCN(C(=O)c2ccco2)CC1 the activity change, negative = inhibition was inconclusive: -20.3%.
With COc1ccc(NC(=O)C/C(C)=N/NC(=O)c2ccccn2)c(OC)c1 the Potency was inconclusive: 35.5 µM [rising, partial curve].
With COc1cc(NC(C(=O)Nc2cccc(C(C)=O)c2)c2ccccc2)cc(OC)c1OC (stereo unspecified) the activity change, negative = inhibition was inconclusive: -3.95%.
In the case of Cc1ccc(-n2ccn(CC(=O)NCCc3ccccc3)c(=O)c2=O)cc1C, the Potency is reported as inconclusive: 11.2 µM [falling, partial curve].
In the case of CN1c2ccsc2/C(=N/Nc2ccccc2)CS1(=O)=O, the “activity change, negative = inhibition” value is reported as inactive: -3.29%.
With Cc1cc(SCC(=O)N/N=C/c2ccc(O)c(O)c2O)c(C)cc1Br the “activity change, negative = inhibition” value was inactive: 12.2%.
In the case of CCc1ccc2[nH]c(=O)c(C(c3nnnn3CCOC)N3CCN(c4ccc(F)cc4)CC3)cc2c1 (stereo unspecified), the Potency is reported as inconclusive: 23.1 µM [falling, single point].
For COc1nn(-c2nc(-c3ccccc3)cc(C(F)(F)F)n2)cc1[N+](=O)[O-], the “activity change, negative = inhibition” value was inactive: -9.44%.
For CN1CCN(CCOCCOc2ccc(Br)cc2Cl)CC1, the “activity change, negative = inhibition” value was inactive: 4.91%.
With CCOC(=O)c1c(CNCc2ccccc2F)c2sc(C)cc2n1C the activity change, negative = inhibition was inconclusive: 10.8%.
For Cc1ccccc1Nc1nc(-c2cccnc2)cs1, the Potency was inconclusive: 25.1 µM [falling, single point].
For Cc1c(C(=O)NCCN2CCOC2=O)oc2c(F)cccc12, the Potency was inconclusive: 12.6 µM [falling, partial curve, poor fit].
For OCCCN1c2ccccc2Nc2nnc(-c3ccccc3)cc21, the activity change, negative = inhibition was inconclusive: -27.2%.
For Cc1ccc(C(=O)OCCN(C)Cc2ccccc2)cc1, the activity change, negative = inhibition was inconclusive: 14.8%.
In the case of Cc1ccc(NC(=S)NNC(=O)c2cn(C)nc2C)cc1, the activity change, negative = inhibition is reported as inconclusive: -17.4%.
With CCCCc1nnc(SCCSc2nnc(CCCC)n2N)n1N the activity change, negative = inhibition was inconclusive: 2.34%.
For CC(=O)c1cccc(Oc2cc(NN3CCCCC3)c([N+](=O)[O-])cc2[N+](=O)[O-])c1, the Potency was inconclusive: 12.6 µM [rising, partial curve, poor fit].
For O=C(c1noc2c1CCc1ccccc1-2)N1CCOCC1, the activity change, negative = inhibition was inconclusive: 1.85%.
For N#Cc1ccccc1NC(=O)C(=O)NCC1CCCN1S(=O)(=O)c1cccs1 (stereo unspecified), the “activity change, negative = inhibition” value was inactive: 6.49%.
With COc1ccc(N(C(=O)c2snc(C(N)=O)c2N)C(C(=O)NC2CCCC2)c2ccc3ncccc3c2)cc1 (stereo unspecified) the “activity change, negative = inhibition” value was inactive: 6.36%.
With O=C(Nc1nc2cc3c(cc2s1)OCCO3)C1=COCCO1 the Potency was inconclusive: 35.5 µM [rising, single point].
In the case of O=C(O)c1cc(-c2ccc(Cl)cc2)n(-c2ccccc2)n1, the Potency is reported as inconclusive: 8.91 µM [rising, partial curve, poor fit].
In the case of CC(C(=O)Nc1cc(C(F)(F)F)ccc1N1CCOCC1)N1C(=O)C2CC=CCC2C1=O (stereo unspecified), the activity change, negative = inhibition is reported as inconclusive: 1.97%.
For Clc1ccc2nc(NC3=NCN(CCN4CCOCC4)CN3)nc(-c3ccccc3)c2c1, the activity change, negative = inhibition was inconclusive: 6.16%.
For Cc1ccc(-c2nc(SCC(=O)Nc3cc(S(=O)(=O)N4CCCCC4)ccc3Cl)n[nH]2)cc1, the activity change, negative = inhibition was inconclusive: -0.363%.
In the case of CNC(=S)N/N=C/c1ccco1, the Potency is reported as inconclusive: 35.5 µM [falling, single point].
For COc1ccc(/C=N/NC(=O)c2cccnc2)cc1CN1CCc2cc(OC)c(OC)cc2C1C (stereo unspecified), the Potency was inconclusive: 7.94 µM [falling, partial curve].
For CCOc1cc(C2NC(=O)NC(C)=C2C(=O)OCc2ccccc2)ccc1O (stereo unspecified), the Potency was inconclusive: 11.2 µM [falling, partial curve, poor fit].
